Record: PubChem BioAssay AID1259254 (NCATS, 2017)

- Screen: 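Genome-wide screen for genes that prevent DNA re-replication in cancer cells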 (primary screen)
- Cell system: human HCT116 colorectal cancer cells
- Reagents: single siRNA against human genes
- Duration: 3 days
- Read-out: 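Nuclei stained with Hoechst and imaged; cell-cycle phase assigned by DNA content; G2 share scaled per plate, non-targeting siRNA 0%, GMNN siRNA 100%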
- Reading the numbers: G2 robust z-score: higher = more G2 cells, more excess DNA replication
- Rule for the call: 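An siRNA counts as active if its G2 robust z-score lies at least 5 MADs above the screen median; here such calls match roughly 38% of GMNN control or more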
Shown is a random part of about 59,000 reagents tested. About 1,550 of all reagents (2.6%) count as active. 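G2 share is only a proxy for re-replication; each gene was hit by three separate siRNAs, and active genes were retested.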 Reagents against one gene are numbered here. Not all columns of the deposit are shown. Not given: the amount of reagent.

With knock-down of YTHDC2 (GeneID 64848) #1, the screen gave G2 robust z-score 0.545; inactive. YTHDC2 (GeneID 64848) #2 gave G2 robust z-score -0.379; inactive. YTHDC2 (GeneID 64848) #3 scored G2 robust z-score -0.364; inactive. After knock-down of S100A12 (GeneID 6283) #1, the screen gave G2 robust z-score 3.85; inactive. After knock-down of S100A12 (GeneID 6283) #2 the results were G2 robust z-score -0.0526; inactive. For S100A12 (GeneID 6283) #3, the entry reads G2 robust z-score 0.0866; inactive.

Knock-down of ARHGAP40 (GeneID 343578) #1 came out at: G2 robust z-score 0.169; inactive. Knock-down of ARHGAP40 (GeneID 343578) #2 resulted in: G2 robust z-score -0.772; inactive. For ARHGAP40 (GeneID 343578) #3, the entry reads G2 robust z-score -0.216; inactive. After knock-down of ANKFN1 (GeneID 162282) #1, the record shows G2 robust z-score -0.427; inactive. Against ANKFN1 (GeneID 162282) #2, the entry reads G2 robust z-score -0.999; inactive. With knock-down of ANKFN1 (GeneID 162282) #3, the record shows G2 robust z-score 0.549; inactive.

A stretch from the list above, for reference:
S100A12 (GeneID 6283) #1: G2 robust z-score = 3.85; activity call = inactive
S100A12 (GeneID 6283) #2: G2 robust z-score = -0.0526; activity call = inactive
